Results: US20110263694A1, “Use of Xanthone Derivatives as a Medicament for Cancer” (MUSEUM NATIONAL D'HISTOIRE NATURELLE, priority 2008, published 2011)
Some of these results come from one statement about several compounds together. Some ranges recur; such a range may be that of the whole group of compounds.

How the values were obtained:
B-CLL cells [1] = test: Release of cytoplasmic nucleosomes (DNA fragmentation ELISA) in B-CLL cells; type: cell-based, human; conditions: 10 μg/ml, 24 hours; FIG. 4
B-CLL cells [2] = test: Annexin V-FITC/PI labelling of B-CLL cells; type: cell-based, human; conditions: B-CLL cells ex vivo

SMILES	release of nucleosomes in the cytoplasm of B-CLL cells vs untreated cells (B-CLL cells [1])	increase in the percentage of AnnexinV+/PI− B-CLL cells (B-CLL cells [2])
CC(C)=CCc1c(O)cc2oc3c(c(=O)c2c1O)C(CC=C(C)C)(CC=C(C)C)C(=O)C(O)=C3 [M4, allanxanthone C]	more than 3 fold	10-30%
COc1c(O)cc2oc3cc(O)c(CC=C(C)C)c(O)c3c(=O)c2c1CC=C(C)C [M2, α-mangostin]	more than 3 fold	10-30%
C=CC(C)(C)c1c2c(c(O)c3c(=O)c4ccc(O)c(O)c4oc13)C=CC(C)(C)O2 [M6, Macluraxanthone]	more than 3 fold	10-30%
CC(C)=CCC/C(C)=C/Cc1c(O)c(O)cc2oc3cc(O)c(CC=C(C)C)c(O)c3c(=O)c12 [M5, norcowanin]	more than 3 fold	10-30%
